# The list shows a part of the results.
# Protein sequences, listed by entry. Tags and fused reporters are not part of them.
# UniProt Q0JBA9, entry or part of it: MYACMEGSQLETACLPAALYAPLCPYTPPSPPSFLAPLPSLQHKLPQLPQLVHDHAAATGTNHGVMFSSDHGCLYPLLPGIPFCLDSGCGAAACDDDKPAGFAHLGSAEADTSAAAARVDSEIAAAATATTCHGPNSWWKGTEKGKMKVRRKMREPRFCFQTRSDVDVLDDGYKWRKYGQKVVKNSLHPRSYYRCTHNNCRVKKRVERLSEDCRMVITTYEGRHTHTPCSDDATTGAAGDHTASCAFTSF
# Target: OsWRKY34 (Oryza sativa, UniProt Q0JBA9 1-250)
# Experiment: protein-binding microarray (RPBM); PBS, 2% BSA, 51.3 ng/ul salmon testes DNA, 50 uM zinc acetate, 200 nM TF, 25 C, 1 h; high values mean tight binding
# Conditions: protein: recombinant; tags: N-terminal polyhistidine and DsRed monomer fusion (pET32a); label: CyDye5-dUTP incorporated in the synthesized complementary strand; 3' TTTTT single-stranded linker to array surface; dsDNA, one strand shown
# In short: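 An Axon 4000B scanner gave the binding signal as per-feature fluorescence intensity in arbitrary units. This followed washing of a custom Agilent array that had been incubated for 1 h at 25 °C with 200 nM protein in PBS, 2% BSA, salmon testes DNA and 50 µM zinc acetate. The proteins were transcription factors fused at the N-terminus to polyhistidine and DsRed, expressed in E. coli BL21-CodonPlus and purified on Ni–NTA.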
row,Sequence,binding signal
1,GCTCACCCGTCCAGCGTTTCGCCCCTTCACCTCCCAACCACGGAGTCACCTAGTGCAG,9490 fluorescence intensity (a.u.)
2,ATGTGGGTGTGGCATTGTTGGTGTCGGCTGCGCCGCAGCCCGGAGTCACCTAGTGCAG,9630 fluorescence intensity (a.u.)
3,ACTCGCTATCTTGTCACGTCCATAAGTACATGCCATTGCCCGGAGTCACCTAGTGCAG,8330 fluorescence intensity (a.u.)
4,TTTCAGTTTAGTATATGCACTTCTTGTTCTTCACTGCTGCCGGAGTCACCTAGTGCAG,9480 fluorescence intensity (a.u.)
5,GGTCATAAGCCATGCCACGCTCTTTTTAATTATTTATCAGCGGAGTCACCTAGTGCAG,11200 fluorescence intensity (a.u.)
6,TGTTCTTTTTGGCTAAAACTTTCAGAGTAACATCGATTTTCGGAGTCACCTAGTGCAG,8240 fluorescence intensity (a.u.)
7,ATGTTTAAAAAAGTCAACGGCGTCGACGGAGTGTATATATCGGAGTCACCTAGTGCAG,14200 fluorescence intensity (a.u.)
8,GCTTCAGTGAGCCACCGCGTCGTCGCGACGCCACGCCGCGCGGAGTCACCTAGTGCAG,8890 fluorescence intensity (a.u.)
9,GCCCATTTGGCCACCTATACCCGCACCCGCCGGTCCGGACCGGAGTCACCTAGTGCAG,11400 fluorescence intensity (a.u.)
10,ATGTTGACTAATTTCCTTAAATAATTTACTGCTACTGACTCGGAGTCACCTAGTGCAG,10500 fluorescence intensity (a.u.)
11,GCGCCCGACGTACGTGCTGTATTACTGTTGTTCCGTAGATCGGAGTCACCTAGTGCAG,8990 fluorescence intensity (a.u.)
12,AGCCAGATCCATCGCCTCGCCGCCGTGCCTCCGCGAGCCGCGGAGTCACCTAGTGCAG,9400 fluorescence intensity (a.u.)
13,TTCGTCTCCGTTTCGTCTTCTTCTTCTTCTTCTTCTTCGGCGGAGTCACCTAGTGCAG,8790 fluorescence intensity (a.u.)
14,GCCAGTCAGCCTCCTCCCTTGCCGCGCCTGCCTTCCTAGACGGAGTCACCTAGTGCAG,9440 fluorescence intensity (a.u.)
15,CATGTTTGACCGTTCGTCTTATTAAAACCTGTTATGAAATCGGAGTCACCTAGTGCAG,8370 fluorescence intensity (a.u.)
16,GGGTCATGTGGCATCTTTTCGTCATCATCGCCATGGCAAGCGGAGTCACCTAGTGCAG,10100 fluorescence intensity (a.u.)
17,AGAGCCGGTTTCTTGCATGAAAAACACATTTTTATTTTCCCGGAGTCACCTAGTGCAG,8840 fluorescence intensity (a.u.)
18,CCTCCCGCCGCCCCTTCCTCTCCCGCCGGCCGCCGCGCGGCGGAGTCACCTAGTGCAG,10500 fluorescence intensity (a.u.)
19,ATTGGTCGATGGTATTTATTGGATTGGGGCACTTGTTGATCGGAGTCACCTAGTGCAG,8370 fluorescence intensity (a.u.)
20,TTTCGTTTTCTACGTGCACGCTTCCCAAACTATTAAACGACGGAGTCACCTAGTGCAG,8160 fluorescence intensity (a.u.)
21,ATCCGGTGGAACATAACTGCTCTTTCCATCTCATTTTAACCGGAGTCACCTAGTGCAG,8700 fluorescence intensity (a.u.)

row,Sequence,binding signal
1,AGGAATAGGAGTACTCCTTTTTGGCACGTATAAACCCGCGCGGAGTCACCTAGTGCAG,8220 fluorescence intensity (a.u.)
2,TAACCACATATACACACTACTCCTCAACTGTTGATTTTAACGGAGTCACCTAGTGCAG,8770 fluorescence intensity (a.u.)
3,AACGTTGATCACGGAAACTAGGATTTGTCTTTTTTTTTTTCGGAGTCACCTAGTGCAG,8810 fluorescence intensity (a.u.)
4,GCCGAAGCTCGTCGCCGATGGCCATGTCCTCCTCCCGCTGCGGAGTCACCTAGTGCAG,8160 fluorescence intensity (a.u.)
5,TTTCTGCTAAAAGTTTTGGTTTTTTTAATGTTCCTACCGTCGGAGTCACCTAGTGCAG,8120 fluorescence intensity (a.u.)
6,ATTCCACTTTCAGTTTGGTTCATGAGATGCATTAAGTCTGCGGAGTCACCTAGTGCAG,9150 fluorescence intensity (a.u.)
7,CCGCCGCTACTCTCCATCATTTCAGTTTTCTCTCGAGTCACGGAGTCACCTAGTGCAG,10200 fluorescence intensity (a.u.)
8,CCCCTATTTAGCCGCGCCATTTTCCCCTCGCTAGCTGTGTCGGAGTCACCTAGTGCAG,8400 fluorescence intensity (a.u.)
9,TACTCCCCTCTGCTGCACTGGACTTGGGGTGGGGTGGAGCCGGAGTCACCTAGTGCAG,11400 fluorescence intensity (a.u.)
10,TTATATATATGTCTAGTACTATGTTGATTATCTCTCATGCCGGAGTCACCTAGTGCAG,8280 fluorescence intensity (a.u.)
11,TCTCCTTTTATAGCCACCCGTCGACTCCAACTCCTCTCAACGGAGTCACCTAGTGCAG,8640 fluorescence intensity (a.u.)
12,GCTCACTGTACCATGCGTGACAAAGCCGCGCTTTTTCTAGCGGAGTCACCTAGTGCAG,8470 fluorescence intensity (a.u.)
13,CATTTGACTTTTTTCTAGTCAAAGTTATTTATATTTAATTCGGAGTCACCTAGTGCAG,14100 fluorescence intensity (a.u.)
14,CTTCTGGTTTTGAGGTATTTGGGGTTACTTCACAAAACTTCGGAGTCACCTAGTGCAG,8490 fluorescence intensity (a.u.)
15,GACGTTTTCTGCCTCTTGCATATTGTCCTGTCCAAGCAAACGGAGTCACCTAGTGCAG,13000 fluorescence intensity (a.u.)
16,CGCCCCGCCGCCAAACCAATCTTTCCTCGCGGCGGCGTTTCGGAGTCACCTAGTGCAG,8350 fluorescence intensity (a.u.)
17,TCACAATGTGTGGGTAGCAAGGGGTTGTTTGTGATAGGGGCGGAGTCACCTAGTGCAG,12400 fluorescence intensity (a.u.)
18,TGGGGTCATGTTTGTACTTTGGCAACTGGTCGACTTCATACGGAGTCACCTAGTGCAG,18400 fluorescence intensity (a.u.)
19,CTTCTGTTTAAACGTACGCTTTCCCGTTGTCCTGTGGTTTCGGAGTCACCTAGTGCAG,12600 fluorescence intensity (a.u.)
20,ATTTATAGTCAAAGATTTGAAGGTTTGACTTTACTCTGCTCGGAGTCACCTAGTGCAG,11600 fluorescence intensity (a.u.)
21,TGTTTTTACACTTGCATTCCTACCAAAATCCTGTGTTTTTCGGAGTCACCTAGTGCAG,11000 fluorescence intensity (a.u.)

# Taken from the entries so far for reference:
row,Sequence,binding signal
6,TGTTCTTTTTGGCTAAAACTTTCAGAGTAACATCGATTTTCGGAGTCACCTAGTGCAG,8240 fluorescence intensity (a.u.)
7,ATGTTTAAAAAAGTCAACGGCGTCGACGGAGTGTATATATCGGAGTCACCTAGTGCAG,14200 fluorescence intensity (a.u.)
8,GCTTCAGTGAGCCACCGCGTCGTCGCGACGCCACGCCGCGCGGAGTCACCTAGTGCAG,8890 fluorescence intensity (a.u.)

# — PMC7819943, “Rice protein-binding microarrays: a tool to detect cis-acting elements near promoter regions in rice”
